Reference: the supplement of paper PMC12595434, “Development of retinoid nuclear receptor pathway antagonists through targeting aldehyde dehydrogenase 1A3” (iScience, 2025)
The list shows a part of the results. Single values of this set are uncertain.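 Many melting curves are irregular; where none melted, Tm was taken as 64 °C.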

The chains behind the UniProt entries cited, without tags or fusion partners. Where a name states a change or a piece, a line headed by the entry shows the natural chain unless it says otherwise.
UniProt A7E2V4, whole entry: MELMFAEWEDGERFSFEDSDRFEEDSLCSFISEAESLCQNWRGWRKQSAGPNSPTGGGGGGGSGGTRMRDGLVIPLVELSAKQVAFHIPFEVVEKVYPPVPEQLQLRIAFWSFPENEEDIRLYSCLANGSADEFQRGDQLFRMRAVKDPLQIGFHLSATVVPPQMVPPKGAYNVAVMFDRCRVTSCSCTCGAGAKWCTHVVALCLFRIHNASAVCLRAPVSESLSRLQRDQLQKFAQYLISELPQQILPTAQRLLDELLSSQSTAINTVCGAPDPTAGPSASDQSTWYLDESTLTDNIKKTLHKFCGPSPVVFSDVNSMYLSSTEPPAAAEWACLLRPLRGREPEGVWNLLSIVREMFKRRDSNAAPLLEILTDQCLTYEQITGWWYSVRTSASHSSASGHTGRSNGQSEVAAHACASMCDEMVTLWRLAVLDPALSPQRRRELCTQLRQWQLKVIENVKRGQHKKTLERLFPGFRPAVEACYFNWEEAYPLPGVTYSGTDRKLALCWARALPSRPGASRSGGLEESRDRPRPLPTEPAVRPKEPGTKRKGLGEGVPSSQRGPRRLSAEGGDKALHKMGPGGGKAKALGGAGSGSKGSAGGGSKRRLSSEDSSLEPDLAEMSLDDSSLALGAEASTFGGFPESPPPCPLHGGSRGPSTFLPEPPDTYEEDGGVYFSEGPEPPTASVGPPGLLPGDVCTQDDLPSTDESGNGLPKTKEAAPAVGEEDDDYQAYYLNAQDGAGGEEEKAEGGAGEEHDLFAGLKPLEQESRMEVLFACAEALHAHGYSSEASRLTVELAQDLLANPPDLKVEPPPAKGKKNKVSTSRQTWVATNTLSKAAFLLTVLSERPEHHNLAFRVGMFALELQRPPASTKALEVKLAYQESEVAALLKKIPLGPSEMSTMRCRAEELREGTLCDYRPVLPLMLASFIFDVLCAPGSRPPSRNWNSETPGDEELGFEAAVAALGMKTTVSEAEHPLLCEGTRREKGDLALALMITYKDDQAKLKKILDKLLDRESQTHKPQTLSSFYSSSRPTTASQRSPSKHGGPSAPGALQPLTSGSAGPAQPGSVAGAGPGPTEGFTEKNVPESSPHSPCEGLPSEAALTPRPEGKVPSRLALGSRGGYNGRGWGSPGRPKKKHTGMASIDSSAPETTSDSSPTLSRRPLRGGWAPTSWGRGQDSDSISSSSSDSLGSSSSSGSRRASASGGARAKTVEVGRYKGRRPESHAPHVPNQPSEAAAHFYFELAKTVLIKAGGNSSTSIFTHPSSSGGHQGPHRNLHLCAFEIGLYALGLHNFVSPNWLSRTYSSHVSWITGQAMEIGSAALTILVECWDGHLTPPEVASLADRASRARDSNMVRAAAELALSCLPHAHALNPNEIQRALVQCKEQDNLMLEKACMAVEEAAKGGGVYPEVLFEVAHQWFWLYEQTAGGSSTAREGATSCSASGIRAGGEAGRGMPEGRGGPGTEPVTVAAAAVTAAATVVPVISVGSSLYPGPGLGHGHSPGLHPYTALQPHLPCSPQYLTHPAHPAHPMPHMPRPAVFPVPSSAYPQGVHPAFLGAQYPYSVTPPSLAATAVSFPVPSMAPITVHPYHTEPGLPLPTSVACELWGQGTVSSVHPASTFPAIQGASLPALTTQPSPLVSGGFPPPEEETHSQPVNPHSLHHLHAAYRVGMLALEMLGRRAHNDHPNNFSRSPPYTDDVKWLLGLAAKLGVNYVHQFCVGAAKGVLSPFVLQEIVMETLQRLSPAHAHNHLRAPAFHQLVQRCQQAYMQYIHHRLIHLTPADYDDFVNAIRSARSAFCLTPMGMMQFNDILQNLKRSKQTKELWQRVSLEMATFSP
UniProt O14950, whole entry: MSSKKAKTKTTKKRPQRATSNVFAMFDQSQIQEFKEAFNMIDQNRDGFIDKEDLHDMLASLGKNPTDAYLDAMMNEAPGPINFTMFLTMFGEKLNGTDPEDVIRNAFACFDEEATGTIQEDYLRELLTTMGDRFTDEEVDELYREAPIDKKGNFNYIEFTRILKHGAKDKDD
UniProt O14949: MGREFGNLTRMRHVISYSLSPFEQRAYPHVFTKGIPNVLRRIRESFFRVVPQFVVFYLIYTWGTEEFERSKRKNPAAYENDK
UniProt A8CG34, whole entry: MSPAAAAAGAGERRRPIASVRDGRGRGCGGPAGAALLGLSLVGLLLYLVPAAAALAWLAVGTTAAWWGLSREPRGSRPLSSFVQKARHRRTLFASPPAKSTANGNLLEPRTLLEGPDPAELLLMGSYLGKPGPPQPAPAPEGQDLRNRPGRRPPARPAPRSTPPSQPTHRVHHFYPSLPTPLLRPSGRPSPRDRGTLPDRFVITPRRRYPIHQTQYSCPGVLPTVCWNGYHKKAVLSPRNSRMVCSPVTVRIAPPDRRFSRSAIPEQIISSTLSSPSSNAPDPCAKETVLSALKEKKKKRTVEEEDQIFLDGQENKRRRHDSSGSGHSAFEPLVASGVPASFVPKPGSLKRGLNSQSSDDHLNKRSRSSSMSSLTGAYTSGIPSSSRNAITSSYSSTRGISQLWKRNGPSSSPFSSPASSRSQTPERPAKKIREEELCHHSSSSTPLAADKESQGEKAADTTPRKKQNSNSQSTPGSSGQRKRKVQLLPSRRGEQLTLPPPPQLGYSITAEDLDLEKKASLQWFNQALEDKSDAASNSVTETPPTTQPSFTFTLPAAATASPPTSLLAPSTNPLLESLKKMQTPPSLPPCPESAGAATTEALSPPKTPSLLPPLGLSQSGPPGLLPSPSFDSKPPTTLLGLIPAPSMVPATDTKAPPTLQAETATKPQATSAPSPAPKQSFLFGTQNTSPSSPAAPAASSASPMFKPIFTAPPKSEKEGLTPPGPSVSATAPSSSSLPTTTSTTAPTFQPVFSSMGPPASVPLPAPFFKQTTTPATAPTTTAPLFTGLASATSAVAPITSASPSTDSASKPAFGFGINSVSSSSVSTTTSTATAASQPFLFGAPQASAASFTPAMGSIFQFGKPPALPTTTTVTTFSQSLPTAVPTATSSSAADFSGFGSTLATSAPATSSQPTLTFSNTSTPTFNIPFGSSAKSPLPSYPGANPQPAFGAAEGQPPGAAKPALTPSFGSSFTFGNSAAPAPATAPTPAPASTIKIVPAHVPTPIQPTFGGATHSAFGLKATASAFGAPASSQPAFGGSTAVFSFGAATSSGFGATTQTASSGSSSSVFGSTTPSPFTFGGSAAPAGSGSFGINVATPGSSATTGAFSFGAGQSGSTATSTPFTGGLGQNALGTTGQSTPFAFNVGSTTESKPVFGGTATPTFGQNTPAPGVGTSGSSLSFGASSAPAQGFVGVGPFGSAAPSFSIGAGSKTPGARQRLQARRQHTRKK
UniProt O43164: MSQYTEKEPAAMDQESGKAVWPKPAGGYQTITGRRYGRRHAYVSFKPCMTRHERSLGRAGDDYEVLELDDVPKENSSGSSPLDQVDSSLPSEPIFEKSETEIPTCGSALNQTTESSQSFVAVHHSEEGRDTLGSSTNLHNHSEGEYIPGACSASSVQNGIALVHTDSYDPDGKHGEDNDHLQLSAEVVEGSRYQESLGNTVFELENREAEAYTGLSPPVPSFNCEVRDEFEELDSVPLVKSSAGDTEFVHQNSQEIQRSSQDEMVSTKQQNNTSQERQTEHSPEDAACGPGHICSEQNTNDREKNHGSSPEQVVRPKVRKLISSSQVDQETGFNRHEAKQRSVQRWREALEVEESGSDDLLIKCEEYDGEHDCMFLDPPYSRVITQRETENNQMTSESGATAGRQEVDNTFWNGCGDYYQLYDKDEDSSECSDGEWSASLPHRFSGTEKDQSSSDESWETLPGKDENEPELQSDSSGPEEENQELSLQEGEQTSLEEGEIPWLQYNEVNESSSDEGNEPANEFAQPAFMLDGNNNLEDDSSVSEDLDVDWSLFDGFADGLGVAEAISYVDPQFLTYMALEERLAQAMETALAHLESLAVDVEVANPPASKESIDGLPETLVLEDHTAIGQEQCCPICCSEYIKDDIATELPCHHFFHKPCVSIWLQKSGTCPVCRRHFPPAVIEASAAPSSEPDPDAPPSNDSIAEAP
UniProt O00159, whole entry: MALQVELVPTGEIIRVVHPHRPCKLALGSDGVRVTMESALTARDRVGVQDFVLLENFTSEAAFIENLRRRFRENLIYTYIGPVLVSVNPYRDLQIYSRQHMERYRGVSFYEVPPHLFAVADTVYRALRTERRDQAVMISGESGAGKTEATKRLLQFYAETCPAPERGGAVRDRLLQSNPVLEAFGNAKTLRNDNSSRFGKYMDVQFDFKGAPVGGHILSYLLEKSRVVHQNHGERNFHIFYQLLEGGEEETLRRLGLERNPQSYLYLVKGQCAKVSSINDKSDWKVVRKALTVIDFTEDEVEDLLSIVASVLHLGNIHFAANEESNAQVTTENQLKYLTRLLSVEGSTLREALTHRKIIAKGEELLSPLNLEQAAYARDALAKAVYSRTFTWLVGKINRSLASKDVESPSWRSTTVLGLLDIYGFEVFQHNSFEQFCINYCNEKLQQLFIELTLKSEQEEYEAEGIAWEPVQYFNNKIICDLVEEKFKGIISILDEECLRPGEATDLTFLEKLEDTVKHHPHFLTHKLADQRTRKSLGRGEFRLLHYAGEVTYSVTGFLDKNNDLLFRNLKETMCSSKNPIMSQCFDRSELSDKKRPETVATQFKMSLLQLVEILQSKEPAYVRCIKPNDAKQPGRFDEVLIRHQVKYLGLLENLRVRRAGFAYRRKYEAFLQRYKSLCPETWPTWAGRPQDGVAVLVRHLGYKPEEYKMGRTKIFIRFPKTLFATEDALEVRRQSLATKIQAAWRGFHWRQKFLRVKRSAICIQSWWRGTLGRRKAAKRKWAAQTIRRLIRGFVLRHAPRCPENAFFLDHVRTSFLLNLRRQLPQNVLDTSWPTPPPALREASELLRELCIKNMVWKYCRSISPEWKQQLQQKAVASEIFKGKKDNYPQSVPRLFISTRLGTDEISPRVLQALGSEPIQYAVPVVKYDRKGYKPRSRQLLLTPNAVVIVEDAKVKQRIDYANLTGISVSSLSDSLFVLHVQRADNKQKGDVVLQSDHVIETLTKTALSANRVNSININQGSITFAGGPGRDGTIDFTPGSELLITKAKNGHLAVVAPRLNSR
UniProt O43286: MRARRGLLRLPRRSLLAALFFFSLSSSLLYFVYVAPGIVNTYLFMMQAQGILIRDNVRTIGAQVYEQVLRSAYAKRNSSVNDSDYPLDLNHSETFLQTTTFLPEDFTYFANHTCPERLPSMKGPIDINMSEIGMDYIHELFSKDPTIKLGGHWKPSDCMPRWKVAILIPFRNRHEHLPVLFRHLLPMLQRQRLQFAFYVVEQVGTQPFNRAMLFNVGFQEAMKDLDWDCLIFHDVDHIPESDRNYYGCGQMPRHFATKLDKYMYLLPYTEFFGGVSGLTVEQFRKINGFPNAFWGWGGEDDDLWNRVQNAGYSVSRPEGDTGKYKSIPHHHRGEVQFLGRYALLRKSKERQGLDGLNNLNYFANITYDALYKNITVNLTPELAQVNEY
UniProt O15321, whole entry: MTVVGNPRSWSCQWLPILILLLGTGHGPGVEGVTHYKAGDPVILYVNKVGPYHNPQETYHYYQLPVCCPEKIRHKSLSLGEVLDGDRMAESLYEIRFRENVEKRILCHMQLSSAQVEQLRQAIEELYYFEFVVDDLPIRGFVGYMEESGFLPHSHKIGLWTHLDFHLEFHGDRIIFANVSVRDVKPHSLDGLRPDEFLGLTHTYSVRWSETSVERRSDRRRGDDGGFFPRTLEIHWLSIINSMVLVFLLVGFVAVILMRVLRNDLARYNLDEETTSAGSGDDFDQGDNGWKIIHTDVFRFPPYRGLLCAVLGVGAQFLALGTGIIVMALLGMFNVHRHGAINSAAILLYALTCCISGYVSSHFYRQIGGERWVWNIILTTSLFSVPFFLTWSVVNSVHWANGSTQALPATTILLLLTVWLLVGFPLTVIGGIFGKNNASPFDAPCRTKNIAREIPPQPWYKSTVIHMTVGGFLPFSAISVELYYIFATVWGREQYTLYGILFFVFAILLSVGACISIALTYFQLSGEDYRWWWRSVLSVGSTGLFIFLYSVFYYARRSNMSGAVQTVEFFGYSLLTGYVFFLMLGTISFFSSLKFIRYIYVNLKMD
UniProt O43159: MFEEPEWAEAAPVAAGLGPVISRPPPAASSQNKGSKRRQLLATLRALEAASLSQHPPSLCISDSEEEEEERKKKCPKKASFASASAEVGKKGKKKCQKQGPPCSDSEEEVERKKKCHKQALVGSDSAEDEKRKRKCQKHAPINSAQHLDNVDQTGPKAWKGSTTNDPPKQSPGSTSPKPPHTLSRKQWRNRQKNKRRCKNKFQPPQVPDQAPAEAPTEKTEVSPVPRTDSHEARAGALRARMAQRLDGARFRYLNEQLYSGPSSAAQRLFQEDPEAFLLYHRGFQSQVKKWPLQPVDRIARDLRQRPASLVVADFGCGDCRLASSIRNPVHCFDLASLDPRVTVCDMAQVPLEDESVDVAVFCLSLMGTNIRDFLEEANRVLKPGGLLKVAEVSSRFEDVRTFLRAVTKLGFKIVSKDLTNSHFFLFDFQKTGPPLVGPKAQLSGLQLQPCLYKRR

Compound: CCc1cnccc1C(=O)Nc1cc2c(cc1F)NC(=O)CC2
Assay: melting temperature shift (DMSO Tm minus MBE1-treated Tm) in cellular thermal proteome profiling; higher = less thermal stabilization by MBE1 (negative = stabilized by MBE1)
Conditions: A375

Target | melting temperature shift (MBE1 concentration: 100 nM) [°C] | melting temperature shift (MBE1 concentration: 1 uM) [°C]
UniProt O15061 | -0.966 | -0.295
MIF4GD (UniProt A9UHW6) | -1.13 | 0.165
UniProt O15550 | 0.156 | -0.977
WWP2 (UniProt O00308) | -0.32 | 0.282
UniProt O14896 | -0.827 | 0
SETD1A (UniProt O15047) | -0.0769 | -0.109
TNFRSF10A (UniProt O00220) | -0.269 | 2.98
UniProt O43166 | 0.507 | 0.904
ZSWIM8 (UniProt A7E2V4) | -1.75 | 0.0897
DDX3X (UniProt O00571) | -0.34 | -0.0448
SPTLC2 (UniProt O15270) | -0.282 | 0.255
BACH1 (UniProt O14867) | -2.64 | -0.727
UniProt O14950 | -1.38 | 0.159
YKT6 (UniProt O15498) | -0.598 | 0.812
PIR (UniProt O00625) | -1.19 | 0.177
IPO5 (UniProt O00410) | -0.516 | 0.57
GAK (UniProt O14976) | -0.827 | -0.73
PRPF4 (UniProt O43172) | -0.428 | -0.805
PHYH (UniProt O14832) | -0.244 | 0.171
PRMT5 (UniProt O14744) | -0.362 | 0.798

Target | melting temperature shift (MBE1 concentration: 100 nM) [°C] | melting temperature shift (MBE1 concentration: 1 uM) [°C]
PGRMC2 (UniProt O15173) | -0.912 | -0.114
UQCRQ (UniProt O14949) | -3.58 | -3.61
UniProt O15484 | -1.55 | 0.232
UniProt O15254 | -1.25 | 0.899
UniProt O14910 | -0.322 | 0.641
IGF2BP3 (UniProt O00425) | -1.09 | -0.467
FPGT (UniProt O14772) | -0.0268 | 0.423
POM121C (UniProt A8CG34) | 1.06 | 1.32
PDXK (UniProt O00764) | 0.555 | 1.65
GATSL2 (UniProt A6NHX0) | -2.47 | -0.775
UNC13B (UniProt O14795) | -1.26 | -0.147
NOP56 (UniProt O00567) | -0.771 | -0.369
PJA2 (UniProt O43164) | -0.918 | 0.525
UniProt O00213 | -1.16 | -0.569
UniProt O15021 | 0.128 | 0.507
ARID1A (UniProt O14497) | -0.448 | -0.282
TIMM23 (UniProt O14925) | -3.79 | -1.05
MYO1C (UniProt O00159) | -0.64 | -0.571
MID1 (UniProt O15344) | 0.153 | 0.171
UniProt O15068 | 3.21 | 2.76

Target | melting temperature shift (MBE1 concentration: 100 nM) [°C] | melting temperature shift (MBE1 concentration: 1 uM) [°C]
CDIPT (UniProt O14735) | -0.413 | 0.486
RER1 (UniProt O15258) | -3.24 | -1.38
CASC3 (UniProt O15234) | -7.13 | 6.82
B4GALT5 (UniProt O43286) | -0.969 | 0.397
UniProt O15504 | -0.202 | 0.519
E2F3 (UniProt O00716) | -1.5 | 0.611
UniProt O15321 | -0.202 | -1.21
MGST3 (UniProt O14880) | -1.42 | -2.64
BCAT2 (UniProt O15382) | -2.17 | 0.065
RAB29 (UniProt O14966) | -0.0469 | 0.275
HSPA12A (UniProt O43301) | -0.311 | 0.385
KPNA4 (UniProt O00629) | -0.411 | 0.757
UniProt O43306 | 0.391 | -0.953
P0CG08 (UniProt B7ZAQ6) | -0.523 | -0.159
POLR2D (UniProt O15514) | -1.96 | -1.78
UniProt O00584 | 1.24 | 0.587
UNC119B (UniProt A6NIH7) | -0.943 | -1.92
COPE (UniProt O14579) | 0.891 | -0.0305
PIK3R2 (UniProt O00459) | 0.348 | 0.0244
UniProt O43159 | -0.115 | -0.231
